{
  "source": "the supplement of paper PMC8728848",
  "binders": {"B1": {"name": "PX14343E-bfa-545-24-545 (Bacteroides fragilis) (protein)", "chain": "LDRYPQEELSDGSFWKTPDDANKVVSDLYGYLSTWDQDNDINSDNATMGIKWAAGNVSKGIYDPADQGWSGDYANVRQCNLILSKIDEIPDYPEADKTKALGQVYFFRAYIYFNLIRSFGDVPYIDKPLDLKDMEGITRMPRAEVYEKIMADFDKAIAALPTEWGASDYGRVTKGAAMAMKARAALYYGNWDTAATEAKNVMDLGLYELYDKDNTGKYAELFWEKADGCDEFILVTQFNYPDKTHYLMGWECFPTKGWGGMNPTQSLVDAFEDSEGAPISKSKIYDPTDPFKNRDPRLEVDILHDGEEMYGVTIKVAPLASSGSTGINQHNDATETGYYGQKWLDPSLDPLSDGWNMGKDWVHIRYAEVLLTYAEAKNELQGLDPEAFDAVNQVRRRVGMPELQNTDPSKPTYCATQDDLRQRIRNEWRVEFCLEGGKRMWDIRRWGIAKDVLNAPFEGLKYKIVDNPNDPDKKVDGGKMCILYQGDPIILSGSRYSDNNYLFPVPQSEIDLNPALTQNPGY"}},
  "test_in_all_cases": "glycan array binding signal (z-score within array); higher = stronger binding",
  "settings_in_all_cases": "glycan notation: IUPAC condensed, linker removed",
  "key": {"[1]": {"target": "GlcNAc(b1-3)Gal(b1-4)GlcNAc(b1-3)Gal(b1-4)GlcNAc(b1-3)GalNAc", "outline": "(§1)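 The binding signal is a Z-score computed within each array. Data were drawn from 3228 arrays in the Consortium for Functional Glycomics database, restricted to those with a known protein sequence. Scores were averaged over arrays of the same protein sequence at different concentrations or buffers, and over linkers, and negative values can be taken as non-binding.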"}, "[2]": {"target": "GlcNAc(b1-3)Gal(b1-4)GlcNAc(b1-3)GalNAc", "outline": "as §1"}, "[3]": {"target": "GlcNAc(b1-3)Gal(b1-4)GlcNAc(b1-3)[GlcNAc(b1-3)Gal(b1-4)GlcNAc(b1-3)]GalNAc", "outline": "as §1"}, "[4]": {"target": "GlcNAc(b1-3)Gal(b1-4)GlcNAc(b1-6)[Gal(b1-3)]GalNAc", "outline": "as §1"}, "[5]": {"target": "GlcNAc(b1-3)Gal(b1-4)GlcNAc(b1-6)[GlcNAc(b1-3)Gal(b1-3)]GalNAc", "outline": "as §1"}, "[6]": {"target": "GlcNAc(b1-3)Gal(b1-4)GlcNAc(b1-6)[GlcNAc(b1-3)]Gal(b1-4)GlcNAc", "outline": "as §1"}, "GlcNAc(b1-3)GalNAc": {"target": "GlcNAc(b1-3)GalNAc", "outline": "as §1"}, "GlcNAc(b1-3)Man": {"target": "GlcNAc(b1-3)Man", "outline": "as §1"}, "[7]": {"target": "GlcNAc(b1-3)[GlcNAc(b1-4)][GlcNAc(b1-6)]GlcNAc", "outline": "as §1"}, "[8]": {"target": "GlcNAc(b1-3)[GlcNAc(b1-6)]Gal(b1-4)GlcNAc", "outline": "as §1"}, "[9]": {"target": "GlcNAc(b1-3)[GlcNAc(b1-6)]GalNAc", "outline": "as §1"}, "[10]": {"target": "GlcNAc(b1-4)Gal(b1-4)GlcNAc", "outline": "as §1"}, "GlcNAc(b1-4)GlcNAc": {"target": "GlcNAc(b1-4)GlcNAc", "outline": "as §1"}, "[11]": {"target": "GlcNAc(b1-4)GlcNAc(b1-4)GlcNAc", "outline": "as §1"}, "[12]": {"target": "GlcNAc(b1-4)GlcNAc(b1-4)GlcNAc(b1-4)GlcNAc(b1-4)GlcNAc", "outline": "as §1"}, "[13]": {"target": "GlcNAc(b1-4)GlcNAc(b1-4)GlcNAc(b1-4)GlcNAc(b1-4)GlcNAc(b1-4)GlcNAc", "outline": "as §1"}, "[14]": {"target": "GlcNAc(b1-4)[GlcNAc(b1-6)]GalNAc", "outline": "as §1"}, "[15]": {"target": "GlcNAc(b1-6)Gal(b1-4)GlcNAc", "outline": "as §1"}, "GlcNAc(b1-6)GalNAc": {"target": "GlcNAc(b1-6)GalNAc", "outline": "as §1"}, "[16]": {"target": "GlcNAc6S(b1-3)Gal(b1-4)GlcNAc", "outline": "as §1"}, "Kdn(a2-3)Gal(b1-3)GalNAc": {"target": "Kdn(a2-3)Gal(b1-3)GalNAc", "outline": "as §1"}, "Kdn(a2-3)Gal(b1-3)GlcNAc": {"target": "Kdn(a2-3)Gal(b1-3)GlcNAc", "outline": "as §1"}, "Kdn(a2-3)Gal(b1-4)Glc": {"target": "Kdn(a2-3)Gal(b1-4)Glc", "outline": "as §1"}, "Kdn(a2-3)Gal(b1-4)GlcNAc": {"target": "Kdn(a2-3)Gal(b1-4)GlcNAc", "outline": "as §1"}, "[17]": {"target": "Kdn(a2-3)Gal(b1-4)[Fuc(a1-3)]GlcNAc", "outline": "as §1"}, "Kdn(a2-6)Gal(b1-4)GlcNAc": {"target": "Kdn(a2-6)Gal(b1-4)GlcNAc", "outline": "as §1"}, "[18]": {"target": "Man(a1-2)Man(a1-2)Man(a1-3)Man", "outline": "as §1"}, "[19]": {"target": "Man(a1-2)Man(a1-2)Man(a1-6)[Man(a1-3)]Man", "outline": "as §1"}, "Man(a1-2)Man(a1-3)Man": {"target": "Man(a1-2)Man(a1-3)Man", "outline": "as §1"}, "[20]": {"target": "Man(a1-2)Man(a1-3)[Man(a1-2)Man(a1-6)]Man", "outline": "as §1"}, "[21]": {"target": "Man(a1-2)Man(a1-3)[Man(a1-2)Man(a1-6)]Man(a1-6)[Man(a1-2)Man(a1-2)Man(a1-3)]Man", "outline": "as §1"}, "[22]": {"target": "Man(a1-2)Man(a1-3)[Man(a1-2)Man(a1-6)]Man(a1-6)[Man(a1-2)Man(a1-2)Man(a1-3)]Man(b1-4)GlcNAc(b1-4)GlcNAc", "outline": "as §1"}, "[23]": {"target": "Man(a1-2)Man(a1-3)[Man(a1-6)]Man(a1-6)[Man(a1-2)Man(a1-3)]Man(b1-4)GlcNAc(b1-4)GlcNAc", "outline": "as §1"}, "[24]": {"target": "Man(a1-2)Man(a1-6)[Man(a1-3)]Man(a1-6)[Man(a1-2)Man(a1-2)Man(a1-3)]Man", "outline": "as §1"}, "[25]": {"target": "Man(a1-2)Man(a1-6)[Man(a1-3)]Man(a1-6)[Man(a1-2)Man(a1-2)Man(a1-3)]Man(b1-4)GlcNAc(b1-4)GlcNAc", "outline": "as §1"}, "Man(a1-3)[Man(a1-6)]Man": {"target": "Man(a1-3)[Man(a1-6)]Man", "outline": "as §1"}, "[26]": {"target": "Man(a1-3)[Man(a1-6)]Man(a1-6)[Man(a1-2)Man(a1-3)]Man(b1-4)GlcNAc(b1-4)GlcNAc", "outline": "as §1"}},
  "note": "The list shows a part of the results.",
  "data": [
    {"binder": "B1", "values": [
      {"measurement": "glycan array binding signal (z-score)", "setting": "[1]", "value": -0.534},
      {"measurement": "glycan array binding signal (z-score)", "setting": "[2]", "value": 0.418},
      {"measurement": "glycan array binding signal (z-score)", "setting": "[3]", "value": -0.23},
      {"measurement": "glycan array binding signal (z-score)", "setting": "[4]", "value": -0.135},
      {"measurement": "glycan array binding signal (z-score)", "setting": "[5]", "value": -0.017},
      {"measurement": "glycan array binding signal (z-score)", "setting": "[6]", "value": -0.168},
      {"measurement": "glycan array binding signal (z-score)", "setting": "GlcNAc(b1-3)GalNAc", "value": -0.557},
      {"measurement": "glycan array binding signal (z-score)", "setting": "GlcNAc(b1-3)Man", "value": 0.322},
      {"measurement": "glycan array binding signal (z-score)", "setting": "[7]", "value": 1.29},
      {"measurement": "glycan array binding signal (z-score)", "setting": "[8]", "value": -0.611},
      {"measurement": "glycan array binding signal (z-score)", "setting": "[9]", "value": -0.256},
      {"measurement": "glycan array binding signal (z-score)", "setting": "[10]", "value": -0.613},
      {"measurement": "glycan array binding signal (z-score)", "setting": "GlcNAc(b1-4)GlcNAc", "value": 0.154},
      {"measurement": "glycan array binding signal (z-score)", "setting": "[11]", "value": -0.884},
      {"measurement": "glycan array binding signal (z-score)", "setting": "[12]", "value": -0.415},
      {"measurement": "glycan array binding signal (z-score)", "setting": "[13]", "value": -0.443},
      {"measurement": "glycan array binding signal (z-score)", "setting": "[14]", "value": -0.422},
      {"measurement": "glycan array binding signal (z-score)", "setting": "[15]", "value": -0.386},
      {"measurement": "glycan array binding signal (z-score)", "setting": "GlcNAc(b1-6)GalNAc", "value": -0.521},
      {"measurement": "glycan array binding signal (z-score)", "setting": "[16]", "value": -0.057},
      {"measurement": "glycan array binding signal (z-score)", "setting": "Kdn(a2-3)Gal(b1-3)GalNAc", "value": -0.579},
      {"measurement": "glycan array binding signal (z-score)", "setting": "Kdn(a2-3)Gal(b1-3)GlcNAc", "value": -0.513},
      {"measurement": "glycan array binding signal (z-score)", "setting": "Kdn(a2-3)Gal(b1-4)Glc", "value": -0.184},
      {"measurement": "glycan array binding signal (z-score)", "setting": "Kdn(a2-3)Gal(b1-4)GlcNAc", "value": -0.606},
      {"measurement": "glycan array binding signal (z-score)", "setting": "[17]", "value": 0.153},
      {"measurement": "glycan array binding signal (z-score)", "setting": "Kdn(a2-6)Gal(b1-4)GlcNAc", "value": -0.048},
      {"measurement": "glycan array binding signal (z-score)", "setting": "[18]", "value": -0.508},
      {"measurement": "glycan array binding signal (z-score)", "setting": "[19]", "value": -0.704},
      {"measurement": "glycan array binding signal (z-score)", "setting": "Man(a1-2)Man(a1-3)Man", "value": -0.688},
      {"measurement": "glycan array binding signal (z-score)", "setting": "[20]", "value": -0.963},
      {"measurement": "glycan array binding signal (z-score)", "setting": "[21]", "value": -0.94},
      {"measurement": "glycan array binding signal (z-score)", "setting": "[22]", "value": -0.197},
      {"measurement": "glycan array binding signal (z-score)", "setting": "[23]", "value": -0.486},
      {"measurement": "glycan array binding signal (z-score)", "setting": "[24]", "value": 0.11},
      {"measurement": "glycan array binding signal (z-score)", "setting": "[25]", "value": -0.424},
      {"measurement": "glycan array binding signal (z-score)", "setting": "Man(a1-3)[Man(a1-6)]Man", "value": 0.601},
      {"measurement": "glycan array binding signal (z-score)", "setting": "[26]", "value": -0.092}
    ]}
  ]
}
